Common to all, as to test: glycan array binding signal (z-score within array); higher = stronger binding
Common to all, as to details: glycan notation: IUPAC condensed, linker removed

Test [1] addresses Neu5Ac(a2-6)Gal(b1-4)GlcNAc(b1-3)Gal(b1-4)[Fuc(a1-3)]GlcNAc(b1-3)Gal(b1-4)[Fuc(a1-3)]GlcNAc. The procedure, abridged: (§1)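 Glycan array data were curated from 3228 arrays in the Consortium for Functional Glycomics database and kept only where the protein sequence was available. Glycan names were converted to IUPAC-condensed notation, and columns mapping to the same glycan were averaged. The binding signal is a within-array Z-score, averaged across arrays of the same protein sequence at different concentrations or buffers and across linkers. Negative Z-scores can be read as non-binding.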

Test [2] has as its target Neu5Ac(a2-6)Gal(b1-4)GlcNAc6S. The essentials: as §1
The target in another test is Neu5Ac(a2-6)GalNAc. The procedure, abridged:
as §1

The target in test [3] is Neu5Ac(a2-6)GalNAc(b1-4)GlcNAc. The essentials: as §1
A further test deals with Neu5Ac(a2-8)Neu5Ac. The procedure, abridged: as §1
Test [4] addresses Neu5Ac(a2-8)Neu5Ac(a2-3)Gal(b1-4)Glc. The essentials:
as §1

Test [5] addresses Neu5Ac(a2-8)Neu5Ac(a2-3)[GalNAc(b1-4)]Gal(b1-4)Glc. The essentials: as §1
Test [6] concerns the target Neu5Ac(a2-8)Neu5Ac(a2-8)Neu5Ac. The procedure, abridged: as §1
Test [7] concerns the target Neu5Ac(a2-8)Neu5Ac(a2-8)Neu5Ac(a2-3)Gal(b1-4)Glc. The essentials:
as §1

Test [8] concerns the target Neu5Ac(a2-8)Neu5Ac(a2-8)Neu5Ac(a2-3)[GalNAc(b1-4)]Gal(b1-4)Glc. The procedure, abridged: as §1
The target in test [9] is Neu5Ac(a2-8)Neu5Ac(a2-8)Neu5Ac(a2-8)Neu5Ac(a2-3)[GalNAc(b1-4)]Gal(b1-4)Glc. The procedure, abridged: as §1
A further test deals with Neu5Ac(b1-6)GalNAc. The essentials: as §1
The target in test [10] is Neu5Ac(b2-6)Gal(b1-4)GlcNAc. The essentials: as §1
The target in test [11] is Neu5Ac9Ac(a2-6)Gal(b1-4)GlcNAc. The procedure, abridged: as §1
In test [12] the target is Neu5Gc(a2-3)Gal(b1-3)GlcNAc. The essentials:
as §1

Test [13] deals with Neu5Gc(a2-3)Gal(b1-3)[Fuc(a1-4)]GlcNAc. The essentials: as §1
Another test concerns the target Neu5Gc(a2-3)Gal(b1-4)Glc. The essentials:
as §1

Test [14] has as its target Neu5Gc(a2-3)Gal(b1-4)GlcNAc. The procedure, abridged: as §1
Test [15] addresses Neu5Gc(a2-3)Gal(b1-4)[Fuc(a1-3)]GlcNAc. The essentials:
as §1

The target in test [16] is Neu5Gc(a2-3)Gal(b1-4)[Fuc(a1-4)]GlcNAc. The procedure, abridged: as §1
Test [17] has as its target Neu5Gc(a2-6)Gal(b1-4)GlcNAc. The procedure, abridged:
as §1

A further test addresses Neu5Gc(a2-6)GalNAc. The essentials:
as §1

The other results are listed elsewhere or left out.

B1: TIM-1 (Mus musculus), AAL35774 (protein)
chain: MNQIQVFISGLILLLPGAVDSYVEVKGVVGHPVTLPCTYSTYRGITTTCWGRGQCPSSACQNTLIWTNGHRVTYQKSSRYNLKGHISEGDVSLTIENSVESDSGLYCCRVEIPGWFNDQKVTFSLQVKPEIPTRPPTRPTTTRPTATGRPTTISTRSTHVPTSIRVSTSTPPTSTHTWTHKPEPTTFCPHETTAEVTGIPSHTPTDWNGTVTSSGDTWSNHTEAIPPGKPQKNPTKGFYVGICIAALLLLLLVSTVAITRYILMKRKSASLSVVAFRVSKIEALQNAAVVHSRAEDNIYIVEDRP
In the case of B1, the “glycan array binding signal (z-score)” value in [1] is -0.125; in test [2], 0.265; with Neu5Ac(a2-6)GalNAc, -0.529; in test [3], -0.348; with Neu5Ac(a2-8)Neu5Ac, -0.283; in test [4], -0.429. Also, the “glycan array binding signal (z-score)” value was -0.352 in [5]; -0.368 in [6]; -0.132 in test [7]; -0.52 in test [8]; -1.03 in test [9]; 0.038 with Neu5Ac(b1-6)GalNAc. The “glycan array binding signal (z-score)” value is -0.039 in test [10]; -0.372 in [11]; -0.313 in test [12]; -0.226 in [13]; 0.064 in the test with Neu5Gc(a2-3)Gal(b1-4)Glc; 0.186 in test [14]. Moreover, the “glycan array binding signal (z-score)” value in test [15] is 0.138; in test [16] it was 0.134; in test [17] it was -0.372; in the test with Neu5Gc(a2-6)GalNAc, -0.143.

Source of the values: the supplement of paper PMC8728848.
